Source: the supplement of paper PMC10849652
Some of the results follow.

Chains of the proteins cited; added tags and fusions are not shown. Lines headed by an entry give the natural chain unless they say otherwise; changes in a name come on top.
UniProt Q16762: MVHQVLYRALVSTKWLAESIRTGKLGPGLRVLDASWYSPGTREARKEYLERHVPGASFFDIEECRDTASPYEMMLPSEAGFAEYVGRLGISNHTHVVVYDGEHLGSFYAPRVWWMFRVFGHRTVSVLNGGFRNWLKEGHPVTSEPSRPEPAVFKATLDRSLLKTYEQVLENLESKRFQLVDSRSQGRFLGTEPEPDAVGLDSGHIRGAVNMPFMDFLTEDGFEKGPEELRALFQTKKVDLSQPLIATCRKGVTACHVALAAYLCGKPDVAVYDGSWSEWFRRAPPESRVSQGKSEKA
UniProt Q8TBZ6: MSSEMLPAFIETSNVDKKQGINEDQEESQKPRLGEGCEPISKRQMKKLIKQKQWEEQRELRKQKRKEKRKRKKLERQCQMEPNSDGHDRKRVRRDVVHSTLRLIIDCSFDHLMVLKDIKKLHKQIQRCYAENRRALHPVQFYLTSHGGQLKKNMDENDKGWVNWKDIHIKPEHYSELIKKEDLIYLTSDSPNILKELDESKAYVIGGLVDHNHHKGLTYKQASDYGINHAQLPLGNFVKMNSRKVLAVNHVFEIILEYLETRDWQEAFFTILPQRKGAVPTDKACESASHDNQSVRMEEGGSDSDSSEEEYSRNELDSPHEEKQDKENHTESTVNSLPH
UniProt Q8TDR0: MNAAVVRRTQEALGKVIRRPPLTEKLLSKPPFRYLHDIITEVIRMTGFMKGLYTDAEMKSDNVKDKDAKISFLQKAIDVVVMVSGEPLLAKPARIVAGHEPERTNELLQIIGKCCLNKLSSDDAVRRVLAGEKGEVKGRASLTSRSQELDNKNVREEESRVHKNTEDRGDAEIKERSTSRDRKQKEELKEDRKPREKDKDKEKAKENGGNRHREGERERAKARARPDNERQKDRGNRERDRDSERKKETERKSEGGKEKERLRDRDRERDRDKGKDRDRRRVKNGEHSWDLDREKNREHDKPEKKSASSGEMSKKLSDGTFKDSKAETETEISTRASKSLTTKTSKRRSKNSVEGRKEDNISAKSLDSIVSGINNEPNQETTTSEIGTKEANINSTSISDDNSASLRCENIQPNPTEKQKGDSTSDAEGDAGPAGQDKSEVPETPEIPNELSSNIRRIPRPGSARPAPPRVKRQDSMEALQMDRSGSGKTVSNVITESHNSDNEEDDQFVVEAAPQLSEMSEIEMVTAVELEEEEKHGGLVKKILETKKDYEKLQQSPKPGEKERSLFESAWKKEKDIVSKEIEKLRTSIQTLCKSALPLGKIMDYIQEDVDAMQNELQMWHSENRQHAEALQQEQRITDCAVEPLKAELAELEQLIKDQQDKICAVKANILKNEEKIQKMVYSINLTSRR
UniProt Q6PID6, whole entry, looked up: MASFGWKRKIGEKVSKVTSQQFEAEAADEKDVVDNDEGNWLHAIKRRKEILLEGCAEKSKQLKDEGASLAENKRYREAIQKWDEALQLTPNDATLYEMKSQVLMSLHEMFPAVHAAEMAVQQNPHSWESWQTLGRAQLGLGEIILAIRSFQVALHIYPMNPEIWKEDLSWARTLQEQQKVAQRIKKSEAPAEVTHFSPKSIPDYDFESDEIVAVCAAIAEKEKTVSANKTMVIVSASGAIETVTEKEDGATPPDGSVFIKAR
UniProt Q86TN4: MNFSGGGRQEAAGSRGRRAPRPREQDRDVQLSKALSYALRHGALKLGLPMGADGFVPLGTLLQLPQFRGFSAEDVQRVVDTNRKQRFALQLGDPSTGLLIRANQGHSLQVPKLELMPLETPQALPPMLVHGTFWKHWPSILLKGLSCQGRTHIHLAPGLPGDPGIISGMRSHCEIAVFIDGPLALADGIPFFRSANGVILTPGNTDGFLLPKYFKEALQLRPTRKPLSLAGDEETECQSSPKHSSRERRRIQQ
UniProt Q5T7W7: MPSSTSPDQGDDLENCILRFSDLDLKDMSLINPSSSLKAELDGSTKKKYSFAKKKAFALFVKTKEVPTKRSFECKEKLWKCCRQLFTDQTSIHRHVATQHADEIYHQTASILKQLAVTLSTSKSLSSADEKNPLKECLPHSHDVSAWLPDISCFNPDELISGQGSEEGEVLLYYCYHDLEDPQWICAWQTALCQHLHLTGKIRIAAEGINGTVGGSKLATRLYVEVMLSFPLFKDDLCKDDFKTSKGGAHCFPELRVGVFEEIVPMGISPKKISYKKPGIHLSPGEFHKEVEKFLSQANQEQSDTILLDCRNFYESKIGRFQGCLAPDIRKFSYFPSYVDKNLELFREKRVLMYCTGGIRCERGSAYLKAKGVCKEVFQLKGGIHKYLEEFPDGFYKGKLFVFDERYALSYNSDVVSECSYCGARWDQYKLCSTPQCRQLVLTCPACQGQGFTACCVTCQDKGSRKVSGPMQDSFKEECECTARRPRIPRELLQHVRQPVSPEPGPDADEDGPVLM
UniProt Q15631: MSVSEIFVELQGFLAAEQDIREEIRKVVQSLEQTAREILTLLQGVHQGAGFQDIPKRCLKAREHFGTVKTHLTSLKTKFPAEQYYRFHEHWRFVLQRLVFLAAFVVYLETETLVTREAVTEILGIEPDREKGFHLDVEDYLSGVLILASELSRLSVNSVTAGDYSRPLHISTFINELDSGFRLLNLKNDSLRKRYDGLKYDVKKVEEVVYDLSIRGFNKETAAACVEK
UniProt O14545: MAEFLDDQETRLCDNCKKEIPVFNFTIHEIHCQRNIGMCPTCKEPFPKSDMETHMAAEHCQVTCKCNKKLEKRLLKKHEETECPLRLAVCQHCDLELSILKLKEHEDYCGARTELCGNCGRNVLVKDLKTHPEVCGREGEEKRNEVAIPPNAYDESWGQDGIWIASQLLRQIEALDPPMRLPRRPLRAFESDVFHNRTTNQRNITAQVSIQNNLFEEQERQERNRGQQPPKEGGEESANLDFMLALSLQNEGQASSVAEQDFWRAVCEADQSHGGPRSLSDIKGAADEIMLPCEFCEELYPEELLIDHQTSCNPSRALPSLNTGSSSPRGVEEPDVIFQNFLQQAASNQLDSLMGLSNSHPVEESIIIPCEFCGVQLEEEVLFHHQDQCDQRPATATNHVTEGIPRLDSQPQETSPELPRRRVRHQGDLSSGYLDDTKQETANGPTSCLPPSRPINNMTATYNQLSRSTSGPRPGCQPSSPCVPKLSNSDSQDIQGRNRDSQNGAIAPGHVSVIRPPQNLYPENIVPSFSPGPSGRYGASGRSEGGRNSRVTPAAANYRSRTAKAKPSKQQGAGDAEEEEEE
UniProt Q8NBP0: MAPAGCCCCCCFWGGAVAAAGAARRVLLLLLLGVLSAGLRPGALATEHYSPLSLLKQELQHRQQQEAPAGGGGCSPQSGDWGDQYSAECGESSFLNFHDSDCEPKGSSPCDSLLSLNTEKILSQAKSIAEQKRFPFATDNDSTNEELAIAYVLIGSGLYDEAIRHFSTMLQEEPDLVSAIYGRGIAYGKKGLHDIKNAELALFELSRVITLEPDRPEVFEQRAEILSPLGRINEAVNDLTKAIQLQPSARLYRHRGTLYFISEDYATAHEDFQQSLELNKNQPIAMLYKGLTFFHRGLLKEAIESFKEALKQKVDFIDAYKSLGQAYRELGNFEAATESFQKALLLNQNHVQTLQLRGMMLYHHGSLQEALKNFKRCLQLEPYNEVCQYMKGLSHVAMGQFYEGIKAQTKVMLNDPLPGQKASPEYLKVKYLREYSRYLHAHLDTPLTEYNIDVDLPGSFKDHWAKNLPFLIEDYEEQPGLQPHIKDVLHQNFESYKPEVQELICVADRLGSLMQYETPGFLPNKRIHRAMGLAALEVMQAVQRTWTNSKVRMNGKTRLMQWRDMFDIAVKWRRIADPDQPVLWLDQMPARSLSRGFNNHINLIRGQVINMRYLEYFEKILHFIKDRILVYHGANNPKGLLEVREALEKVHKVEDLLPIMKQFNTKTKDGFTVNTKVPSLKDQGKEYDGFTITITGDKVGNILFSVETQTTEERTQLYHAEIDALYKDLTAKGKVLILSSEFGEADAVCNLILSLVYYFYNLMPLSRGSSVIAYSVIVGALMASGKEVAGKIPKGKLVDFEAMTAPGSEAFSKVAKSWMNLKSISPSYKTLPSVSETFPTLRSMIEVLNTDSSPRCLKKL
UniProt Q7L0Y3: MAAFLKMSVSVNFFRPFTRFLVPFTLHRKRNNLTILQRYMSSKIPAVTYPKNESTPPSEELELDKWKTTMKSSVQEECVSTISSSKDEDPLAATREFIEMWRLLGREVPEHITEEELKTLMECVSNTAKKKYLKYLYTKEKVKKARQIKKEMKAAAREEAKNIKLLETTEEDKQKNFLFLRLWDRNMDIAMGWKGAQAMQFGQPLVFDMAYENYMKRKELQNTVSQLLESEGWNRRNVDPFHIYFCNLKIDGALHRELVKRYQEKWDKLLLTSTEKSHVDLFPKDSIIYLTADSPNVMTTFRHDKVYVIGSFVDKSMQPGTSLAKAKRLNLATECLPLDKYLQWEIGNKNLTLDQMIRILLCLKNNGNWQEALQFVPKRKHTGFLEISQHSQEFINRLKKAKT
UniProt Q12815: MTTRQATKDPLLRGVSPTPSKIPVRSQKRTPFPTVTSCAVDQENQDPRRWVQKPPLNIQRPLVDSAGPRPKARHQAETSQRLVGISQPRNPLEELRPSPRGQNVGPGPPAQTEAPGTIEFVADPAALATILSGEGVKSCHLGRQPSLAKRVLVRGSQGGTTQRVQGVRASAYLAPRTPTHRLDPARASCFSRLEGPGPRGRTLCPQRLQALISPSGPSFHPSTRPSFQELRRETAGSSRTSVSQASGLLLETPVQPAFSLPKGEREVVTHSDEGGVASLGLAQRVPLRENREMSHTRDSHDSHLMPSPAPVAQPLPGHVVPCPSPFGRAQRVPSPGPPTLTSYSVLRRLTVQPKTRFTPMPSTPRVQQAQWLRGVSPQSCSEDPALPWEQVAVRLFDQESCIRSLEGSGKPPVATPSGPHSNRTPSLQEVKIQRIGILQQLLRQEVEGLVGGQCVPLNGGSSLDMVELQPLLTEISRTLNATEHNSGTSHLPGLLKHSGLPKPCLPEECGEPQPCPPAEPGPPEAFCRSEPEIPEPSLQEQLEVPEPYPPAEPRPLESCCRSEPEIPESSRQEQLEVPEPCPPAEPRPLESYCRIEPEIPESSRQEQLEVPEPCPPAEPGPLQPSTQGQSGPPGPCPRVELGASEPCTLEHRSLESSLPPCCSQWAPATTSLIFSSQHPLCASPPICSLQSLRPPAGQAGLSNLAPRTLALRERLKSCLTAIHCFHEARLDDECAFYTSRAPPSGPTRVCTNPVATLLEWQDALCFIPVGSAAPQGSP
UniProt Q9NXH9: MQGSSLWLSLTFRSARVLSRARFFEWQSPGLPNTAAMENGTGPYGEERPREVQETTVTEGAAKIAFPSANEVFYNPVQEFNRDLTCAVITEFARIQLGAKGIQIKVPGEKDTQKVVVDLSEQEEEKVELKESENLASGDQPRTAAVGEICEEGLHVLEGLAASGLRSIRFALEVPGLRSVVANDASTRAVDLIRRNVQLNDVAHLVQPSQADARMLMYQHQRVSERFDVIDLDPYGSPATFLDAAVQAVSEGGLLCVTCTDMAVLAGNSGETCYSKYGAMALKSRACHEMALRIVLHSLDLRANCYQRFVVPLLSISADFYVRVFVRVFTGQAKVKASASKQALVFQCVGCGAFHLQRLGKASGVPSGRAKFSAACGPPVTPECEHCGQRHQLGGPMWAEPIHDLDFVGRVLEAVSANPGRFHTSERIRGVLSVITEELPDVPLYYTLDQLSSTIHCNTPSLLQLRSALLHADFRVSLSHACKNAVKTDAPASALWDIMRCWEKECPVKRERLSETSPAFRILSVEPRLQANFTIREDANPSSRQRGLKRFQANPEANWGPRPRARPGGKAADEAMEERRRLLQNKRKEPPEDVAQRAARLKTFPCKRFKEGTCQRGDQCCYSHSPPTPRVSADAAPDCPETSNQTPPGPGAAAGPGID
UniProt Q8NG68: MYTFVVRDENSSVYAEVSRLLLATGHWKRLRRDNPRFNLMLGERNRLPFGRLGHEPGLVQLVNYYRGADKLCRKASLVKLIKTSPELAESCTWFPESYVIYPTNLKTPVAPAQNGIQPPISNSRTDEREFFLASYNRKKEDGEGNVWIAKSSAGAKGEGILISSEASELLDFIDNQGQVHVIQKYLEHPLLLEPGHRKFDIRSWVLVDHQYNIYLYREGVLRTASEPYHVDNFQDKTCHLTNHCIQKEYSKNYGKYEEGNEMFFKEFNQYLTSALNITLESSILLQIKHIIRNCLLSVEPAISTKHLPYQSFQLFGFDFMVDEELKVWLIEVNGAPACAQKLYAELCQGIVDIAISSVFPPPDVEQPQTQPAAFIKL
UniProt Q8WWH5: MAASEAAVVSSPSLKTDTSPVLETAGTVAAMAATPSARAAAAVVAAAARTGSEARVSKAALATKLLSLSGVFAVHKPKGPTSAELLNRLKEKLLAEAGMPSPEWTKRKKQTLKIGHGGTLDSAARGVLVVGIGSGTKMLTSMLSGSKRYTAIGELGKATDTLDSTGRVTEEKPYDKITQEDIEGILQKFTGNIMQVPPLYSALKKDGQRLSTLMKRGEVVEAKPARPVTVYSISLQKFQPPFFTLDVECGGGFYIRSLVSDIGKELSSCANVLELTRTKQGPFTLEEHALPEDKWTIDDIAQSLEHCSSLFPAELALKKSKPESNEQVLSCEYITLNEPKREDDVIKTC

What was measured:
Experiment in all cases: log2 fold change, soluble protein after heating vs DMSO (PISA); higher = thermal stabilisation; K562 lysate, 10 uM; active = over 0.2 and 3.5 SD of the protein, either way, in both replicates (recomputed)
[1] = compound: C1=CC=C(C=C1)[C@H](COC2=CC3=C(C=C2)NC(=O)N3)NC(=O)C4=CC=CN(C4=O)CC5=CC(=C(C=C5)F)F
Procedure, shortened: (§1)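 Quantification was by TMTpro 16plex LC-MS/MS with equalised channel sums, applied to the supernatant after 21,000xg for 90 min. Samples were crude K562 extract at 1 mg/mL protein in PBS pH 7.4 with 1 mM MgCl2, treated with 10 μM compound for 30 min, heated for 3 min across 48°C-58°C, pooled and brought to 0.5% NP-40 at 4°C. Values are log-two fold changes in thermal stability relative to solvent controls, from duplicates.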

[2] = compound: CC1=C(SC2=C1C(=N[C@H](C3=NN=C(N32)C)CC(=O)N)C4=CC=C(C=C4)Cl)C
Procedure, shortened: as §1

[3] = compound: CC1=C2C(=CC=C1)N=C(N(C2=O)C3=CC=CC=C3C)CN4C=NC5=C(N=CN=C54)N
Procedure, shortened: as §1

[4] = compound: Cc1sc2c(c1C)C(c1ccc(Cl)cc1)=N[C@@H](CC(=O)OC(C)(C)C)c1nnc(C)n1-2
Procedure, shortened: as §1

[5] = compound: c1ccc([C@@H]2C[C@H]2NC2CCNCC2)cc1
Procedure, shortened: as §1

Measured: log2 fold change

TSEN34 (UniProt Q9BSV6)
inactive: [1] -0.031 | [2] -0.034 | [3] -0.055 | [4] -0.008 | [5] 0.06

TST (UniProt Q16762)
inactive: [1] 0.008 | [2] 0.037 | [3] -0.02 | [4] 0.057 | [5] 0.057

TRMT10A (UniProt Q8TBZ6)
inactive: [1] -0.046 | [2] 0.099 | [3] -0.025 | [4] 0.016 | [5] -0.029

TRAF3IP1 (UniProt Q8TDR0)
inactive: [1] 0.056 | [2] 0.071 | [3] 0.061 | [4] -0.029

TRPC4AP (UniProt Q8TEL6)
inactive: [1] -0.013 | [2] -0.014 | [3] 0.041 | [4] -0.08 | [5] 0.034

TSEN15 (UniProt Q8WW01)
inactive: [1] -0.044 | [2] -0.101 | [3] -0.019 | [4] 0.021 | [5] -0.004

TTC33 (UniProt Q6PID6)
inactive: [1] 0.03 | [2] -0.037 | [3] 0.003 | [4] -0.036 | [5] 0.034

TTC28 (UniProt Q96AY4)
inactive: [1] 0.028 | [2] -0.015 | [3] -0.071

TSPO (UniProt P30536)
inactive: [1] -0.088 | [2] -0.119 | [3] 0.017 | [4] -0.108 | [5] -0.079

TTC12 isoform 2 (UniProt Q9H892)
inactive: [1] -0.123 | [2] -0.131 | [3] 0.033 | [4] 0.044 | [5] 0.058

TRAPPC2L (UniProt H3BQQ8)
inactive: [1] -0.039 | [2] 0.013

TRPT1 isoform 4 (UniProt Q86TN4)
inactive: [1] -0.035 | [2] 0.032 | [3] 0.015 | [4] 0.104 | [5] 0.145

TRIM23 (UniProt P36406)
inactive: [1] 0.036 | [2] -0.05 | [3] 0.052 | [4] 0.034 | [5] -0.275

TSTD2 (UniProt Q5T7W7)
inactive: [1] -0.05 | [2] -0.076 | [3] -0.058 | [4] 0.063 | [5] 0.165

TSN (UniProt Q15631)
inactive: [1] -0.019 | [2] -0.007 | [3] 0.001 | [4] -0.002 | [5] -0.034

TRIM65 (UniProt Q6PJ69)
inactive: [1] 0.051 | [2] -0.085 | [3] -0.016 | [4] 0.012 | [5] 0.039

TRAFD1 (UniProt O14545)
inactive: [1] 0.02 | [2] 0.001 | [3] -0.013 | [4] 0.006 | [5] -0.008

TTC13 (UniProt Q8NBP0)
inactive: [1] -0.017 | [2] 0.076 | [3] 0.033

TRMT10C (UniProt Q7L0Y3)
inactive: [1] 0.047 | [2] -0.018 | [3] 0.035 | [4] 0.006 | [5] 0.049

TROAP (UniProt Q12815)
inactive: [1] -0.008 | [2] 0.12 | [3] 0.024 | [4] 0.057 | [5] 0.096

TRMT1 (UniProt Q9NXH9)
inactive: [1] 0.005 | [2] 0 | [3] 0.012 | [4] -0.045 | [5] -0.012

TTL (UniProt Q8NG68)
inactive: [1] 0.004 | [2] -0.029 | [3] 0.145 | [4] 0.014 | [5] 0.104

TRUB1 (UniProt Q8WWH5)
inactive: [1] -0.033 | [2] 0.061 | [3] -0.014 | [4] -0.042 | [5] 0

TTC39B (UniProt Q5VTQ0)
inactive: [1] -0.072 | [2] -0.001 | [3] -0.418 | [4] 0.025

TTC7B isoform 2 (UniProt Q86TV6)
inactive: [1] -0.036 | [2] -0.085 | [3] 0.009 | [4] -0.04 | [5] 0.026

TTC17 (UniProt Q96AE7)
inactive: [1] -0.025 | [2] -0.062 | [3] -0.034 | [4] -0.057 | [5] -0.046

Reprinted at random: two entries already listed
TTC39B (UniProt Q5VTQ0)
inactive: [1] -0.072 | [2] -0.001 | [3] -0.418 | [4] 0.025

TRUB1 (UniProt Q8WWH5)
inactive: [1] -0.033 | [2] 0.061 | [3] -0.014 | [4] -0.042 | [5] 0
